{"source": "patent US20120115754A1", "about": "“METHOD FOR DIAGNOSING AND/OR TYPING RENAL CELL CARCINOMA” (priority 2009, published 2012)", "key": {"[1]": {"system": "tumor kidney (RCC) tissue lysate, tyrosine kinase activity", "assay": "Peptide microarray (PamChip) kinase activity profiling of tumor kidney lysate with kinase inhibitor added to the lysate", "format": "biochemical, human", "method": "Both normal and tumor kidney tissue were derived from resection material immediately after surgery. These tissues were snap-frozen and were stored at −85° C. The tissues were cut in slices of 10 μm and stored. For protein extraction 6 slices were lysed in 100 μL of Mammalian Protein Extraction Buffer (M-PER), a lysis buffer containing HALT protease and phosphatase inhibitors, for 60 minutes on ice. The protein concentration was determined for each sample and for the analysis on a peptide microarray comprising 144 peptides typically 5 μg of protein was used. […]\n(§1) To assess the effect of a kinase inhibitor, the kinase inhibitors sorafinib or sunitinib were added to the lysate before application onto the peptide microarray. During 60 cycles of pumping the lysate reaction mixture through the array, peptide phosphorylation was detected by the fluorescently labelled PY20 anti-phosphotyrosine antibody present in the lysate reaction mixture. Real time data were obtained by measuring fluorescence of the bound anti-phosphotyrosine antibody after each 5 cycles. […] Signals for each spot on the image were quantified. Image quantification and data processing was conducted with dedicated PamGene software (Evolve and Bionavigator). […]"}, "[2]": {"system": "normal kidney tissue (NK) lysate, tyrosine kinase activity", "assay": "Peptide microarray (PamChip) kinase activity profiling of normal kidney lysate with kinase inhibitor added to the lysate", "format": "biochemical, human", "method": "Both normal and tumor kidney tissue were derived from resection material immediately after surgery. These tissues were snap-frozen and were stored at −85° C. The tissues were cut in slices of 10 μm and stored. For protein extraction 6 slices were lysed in 100 μL of Mammalian Protein Extraction Buffer (M-PER), a lysis buffer containing HALT protease and phosphatase inhibitors, for 60 minutes on ice. The protein concentration was determined for each sample and for the analysis on a peptide microarray comprising 144 peptides typically 5 μg of protein was used. For this analysis 5 μg of the proteins in the lysate was added to a kinase buffer (1× Abl kinase buffer from New England Biolabs), 100 μM of ATP, and 20 μg/mL of the fluorescently labelled antiphosphotyrosine antibody PY20 to an end volume of 40 μL. Before incubation of the lysate reaction mixtures on a PamChip® substrate array, a blocking step was carried out on the substrate arrays with 2% bovine serum albumin. After loading of the lysate reaction mixtures into substrate arrays comprising 144 protein kinase substrates, comprising the protein kinase peptide substrates as listed in Table 1, incubation was commenced thereby measuring the kinase activity of the sample.\nas §1, with “cycles. Images of the array were taken during the incubation of the array and after 60 cycles of incubation. After 60 cycles of incubation and imaging, the antibody mixture was removed and the array was washed.” for “cycles.”"}}, "note": "At least one structure is not confirmed: it was looked up by name or label, or the drawing left a doubt."}
{"smiles": "CCN(CC)CCNC(=O)c1c(C)[nH]c(/C=C2\\C(=O)Nc3ccc(F)cc32)c1C", "note": "[sunitinib]", "values": [{"measurement": "phosphorylation pattern compared to the control (DMSO)", "setting": "[1]; lysate of tumor kidney (RCC) tissue of one patient, inhibitor pipetted into lysate, FIG. 4 heatmap", "result": "decreased phosphorylation pattern"}, {"measurement": "inhibition of peptide phosphorylation, peptides indicated by downwards arrows", "setting": "[1]; tumor tissue, on-chip treatment, in comparison to other peptides, FIG. 4", "result": "highly inhibited"}, {"measurement": "phosphorylation pattern compared to the control (DMSO)", "setting": "[2]; lysate of normal kidney tissue (NK) of one patient, inhibitor pipetted into lysate, FIG. 4 heatmap", "result": "decreased phosphorylation pattern"}, {"measurement": "inhibition of peptide phosphorylation, peptides indicated by horizontal arrows", "setting": "[2]; normal tissue, on-chip treatment, FIG. 4", "result": "show inhibition"}, {"measurement": "inhibition of peptide phosphorylation, peptides indicated by upward arrows", "setting": "[2]; normal tissue, on-chip treatment, candidate markers for off-target effects, FIG. 4", "result": "show inhibition"}]}
